In patent US20240066045A1, “SEMICARBAZONE-BASED SAPONIN CONJUGATE” (priority 2020, published 2024):
Some entries share one result that the patent states for a list of compounds. At least one structure is not confirmed: it was looked up by name or label, or the drawing left a doubt.

Assay: CMC determination (ANS fluorescence)
Format: physicochemical
Experimental: The critical micellar concentration (CMC) of saponins derived from Saponaria Officinalis (SO) was determined by the method of DeVendittis et al. (www.sciencedirect.com/science/article/pii/0003269781900063, doi.org/10.1016/0003-2697(81)90006-3, Analytical Biochemistry, Volume 115, Issue 2, August 1981, Pages 278-286) as follows: The emission spectrum of 8-Anilinonaphthalene-1-sulfonic acid (ANS) in either purified water (MQ) or PBS (Dulbecco's PBS+/+) was determined at dry weight concentrations of saponins ranging from 1 to 1400 μM to cover the range below and above the CMC. Above the CMC, the fluorescence yield of ANS increases and the wavelength of maximum emission decreases due to portioning of the fluorescent dye into micelles. Fluorescence yields were recorded on a Fluoroskan Ascent FL (Thermo Scientific) at an excitation wavelength of 355 nm, and an emission wavelength of 460 nm. 6 μg at a concentration of 75.86 μM of ANS were used per sample and measurement.

CC(=O)OC1C(C)OC(OC2C(C)OC(OC(=O)[C@]34CCC(C)(C)CC3C3=CCC5[C@@]6(C)CC[C@H](OC7OC(C(=O)O)C(O)C(OC8OCC(O)C(O)C8O)C7OC7OC(CO)C(O)C(O)C7O)[C@@](C)(C=NNC(=O)N7CCN(C(=O)CCCCCN8C(=O)C=CC8=O)CC7)C6CC[C@@]5(C)[C@]3(C)C[C@H]4O)C(OC3OC(C)C(OC4OCC(O)C(OC5OC(CO)C(O)C(O)C5O)C4O)C(O)C3O)C2O)C(O)C1OC1OCC(O)C(O)C1O (stereo partly shown) [SO1861-SC-Mal]
CMC: higher than 800 μM
